Experiment [1] deals with Sos-FOXC2 hybrid protein (human full-length FOXC2, amino acids 1-501, fused to hSos from the pSos vector) (human) (UniProt Q07889). Nature of the experiment: SRS (CytoTrap) yeast two-hybrid, compared with the MafB-MafB interaction.
Experiment [2] has the same target. Nature of the experiment: SRS (CytoTrap) yeast two-hybrid; interaction strength relative to the MafB-MafB interaction (++++).

By UniProt entry, the sequences of proteins in these tests, tags left out. Where a name states a change or a piece, a line headed by the entry shows the natural chain unless it says otherwise.
UniProt Q00610: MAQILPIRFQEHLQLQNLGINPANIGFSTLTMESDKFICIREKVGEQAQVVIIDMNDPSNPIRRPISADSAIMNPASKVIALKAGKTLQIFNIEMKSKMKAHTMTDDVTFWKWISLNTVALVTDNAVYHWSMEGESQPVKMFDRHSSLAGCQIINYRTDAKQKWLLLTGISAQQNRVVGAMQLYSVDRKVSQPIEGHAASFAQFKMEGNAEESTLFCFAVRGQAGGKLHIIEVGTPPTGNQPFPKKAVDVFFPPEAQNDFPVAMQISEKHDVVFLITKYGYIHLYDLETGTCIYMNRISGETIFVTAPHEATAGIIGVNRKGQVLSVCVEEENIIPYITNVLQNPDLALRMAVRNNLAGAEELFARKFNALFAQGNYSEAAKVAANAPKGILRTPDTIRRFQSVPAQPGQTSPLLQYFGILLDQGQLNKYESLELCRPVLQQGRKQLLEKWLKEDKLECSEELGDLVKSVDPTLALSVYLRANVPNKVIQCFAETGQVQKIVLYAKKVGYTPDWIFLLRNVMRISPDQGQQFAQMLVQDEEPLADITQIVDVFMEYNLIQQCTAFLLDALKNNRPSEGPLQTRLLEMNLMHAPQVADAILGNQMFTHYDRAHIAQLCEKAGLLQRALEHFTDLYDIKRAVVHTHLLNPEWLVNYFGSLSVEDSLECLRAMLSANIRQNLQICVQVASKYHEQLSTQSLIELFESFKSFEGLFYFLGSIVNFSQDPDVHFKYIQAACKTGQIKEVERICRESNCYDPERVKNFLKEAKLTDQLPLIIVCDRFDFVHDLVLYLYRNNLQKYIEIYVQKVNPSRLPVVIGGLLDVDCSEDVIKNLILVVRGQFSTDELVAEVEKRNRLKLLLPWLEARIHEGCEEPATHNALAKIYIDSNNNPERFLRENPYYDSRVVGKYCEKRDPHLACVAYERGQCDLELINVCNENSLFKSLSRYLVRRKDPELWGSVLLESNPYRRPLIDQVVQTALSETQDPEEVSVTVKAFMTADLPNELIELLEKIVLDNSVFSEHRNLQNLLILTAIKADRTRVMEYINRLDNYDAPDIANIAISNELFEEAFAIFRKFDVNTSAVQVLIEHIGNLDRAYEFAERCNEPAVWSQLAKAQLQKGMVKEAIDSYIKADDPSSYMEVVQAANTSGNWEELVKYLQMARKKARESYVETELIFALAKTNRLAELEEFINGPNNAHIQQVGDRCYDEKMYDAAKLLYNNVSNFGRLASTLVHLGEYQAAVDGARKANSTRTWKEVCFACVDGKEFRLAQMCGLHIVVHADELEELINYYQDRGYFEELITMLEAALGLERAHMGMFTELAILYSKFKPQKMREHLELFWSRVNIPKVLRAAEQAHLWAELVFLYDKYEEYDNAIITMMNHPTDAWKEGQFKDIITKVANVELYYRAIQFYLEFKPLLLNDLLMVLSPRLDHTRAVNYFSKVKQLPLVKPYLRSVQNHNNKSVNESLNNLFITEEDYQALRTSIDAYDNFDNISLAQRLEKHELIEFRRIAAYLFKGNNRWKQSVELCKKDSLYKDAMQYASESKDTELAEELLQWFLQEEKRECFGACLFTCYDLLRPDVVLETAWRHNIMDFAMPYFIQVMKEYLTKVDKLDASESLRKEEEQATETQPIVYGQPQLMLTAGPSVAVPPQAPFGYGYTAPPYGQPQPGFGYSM
UniProt O94818: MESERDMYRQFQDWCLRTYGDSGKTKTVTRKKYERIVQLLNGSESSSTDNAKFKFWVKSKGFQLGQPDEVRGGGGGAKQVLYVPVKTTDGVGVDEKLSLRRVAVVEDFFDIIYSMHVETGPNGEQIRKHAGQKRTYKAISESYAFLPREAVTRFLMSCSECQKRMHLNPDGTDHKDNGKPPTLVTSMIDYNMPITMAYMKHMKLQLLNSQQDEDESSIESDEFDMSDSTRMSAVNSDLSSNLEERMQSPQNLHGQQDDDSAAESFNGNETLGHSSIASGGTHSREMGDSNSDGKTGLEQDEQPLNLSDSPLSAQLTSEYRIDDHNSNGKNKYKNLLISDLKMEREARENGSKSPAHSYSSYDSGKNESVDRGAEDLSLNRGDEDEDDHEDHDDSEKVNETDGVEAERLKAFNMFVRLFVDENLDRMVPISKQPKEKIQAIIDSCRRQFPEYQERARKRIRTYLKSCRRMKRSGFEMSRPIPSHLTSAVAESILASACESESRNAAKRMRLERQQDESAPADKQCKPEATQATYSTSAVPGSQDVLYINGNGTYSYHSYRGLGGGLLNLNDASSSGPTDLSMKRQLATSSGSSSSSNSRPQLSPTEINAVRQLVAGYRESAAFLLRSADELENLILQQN
UniProt A2Q0Z1: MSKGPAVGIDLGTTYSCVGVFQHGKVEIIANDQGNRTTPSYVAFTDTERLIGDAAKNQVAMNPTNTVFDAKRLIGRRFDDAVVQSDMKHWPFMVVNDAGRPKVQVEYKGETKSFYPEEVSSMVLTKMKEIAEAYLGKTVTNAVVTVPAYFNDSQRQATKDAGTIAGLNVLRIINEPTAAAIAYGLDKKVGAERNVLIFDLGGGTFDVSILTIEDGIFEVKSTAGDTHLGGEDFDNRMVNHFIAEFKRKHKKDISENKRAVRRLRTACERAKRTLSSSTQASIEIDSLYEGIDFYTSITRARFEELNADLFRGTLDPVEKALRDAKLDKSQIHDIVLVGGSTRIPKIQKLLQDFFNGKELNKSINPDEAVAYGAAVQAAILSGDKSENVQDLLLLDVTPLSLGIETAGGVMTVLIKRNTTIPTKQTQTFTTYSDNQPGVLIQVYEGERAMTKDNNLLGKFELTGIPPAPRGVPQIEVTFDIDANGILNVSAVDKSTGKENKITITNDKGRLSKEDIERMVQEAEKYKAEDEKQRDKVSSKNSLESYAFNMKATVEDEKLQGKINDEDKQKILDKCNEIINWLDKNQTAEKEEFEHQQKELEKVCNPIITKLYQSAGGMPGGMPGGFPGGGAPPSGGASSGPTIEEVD

Among the data in patent US20060052293A1 are binding values, retold here.

No constants are given. Whether binding was seen depends on the method and setting. Some binding calls cover weakened binding; strength is not graded here.

In the case of “CLH1 (human clathrin heavy chain protein; prey clones, fused to the src myristylation signal of pMyr) (from UniProt Q00610 853-1675)”, the binding entry in experiment [1] and in experiment [2] was “binds” each time.

Turning to “NOLP (nucleolar-localized protein; prey clone starting at D145, fused to the src myristylation signal of pMyr) (from UniProt O94818 259-638)”, the binding entry in experiment [1] and in experiment [2] was “binds” in each case.

In the case of “Heat Shock Cognate Protein-71 (HSC71; prey clones, fused to the src myristylation signal of pMyr) (from UniProt A2Q0Z1 127-646)”, the binding entry in experiment [1] and in experiment [2] was “binds” throughout.
